Paper PMC13257416
No constants are given. Whether binding was seen depends on the method and setting. Binding seen in cells or lysates may run through a third protein. A result given as binding can be weak or reduced; the word gives no strength. Tags and fused reporters may be left off the sequences shown.

Target: T1, GST-AnxA6 fusion protein (UniProt P08133)
T1 sequence: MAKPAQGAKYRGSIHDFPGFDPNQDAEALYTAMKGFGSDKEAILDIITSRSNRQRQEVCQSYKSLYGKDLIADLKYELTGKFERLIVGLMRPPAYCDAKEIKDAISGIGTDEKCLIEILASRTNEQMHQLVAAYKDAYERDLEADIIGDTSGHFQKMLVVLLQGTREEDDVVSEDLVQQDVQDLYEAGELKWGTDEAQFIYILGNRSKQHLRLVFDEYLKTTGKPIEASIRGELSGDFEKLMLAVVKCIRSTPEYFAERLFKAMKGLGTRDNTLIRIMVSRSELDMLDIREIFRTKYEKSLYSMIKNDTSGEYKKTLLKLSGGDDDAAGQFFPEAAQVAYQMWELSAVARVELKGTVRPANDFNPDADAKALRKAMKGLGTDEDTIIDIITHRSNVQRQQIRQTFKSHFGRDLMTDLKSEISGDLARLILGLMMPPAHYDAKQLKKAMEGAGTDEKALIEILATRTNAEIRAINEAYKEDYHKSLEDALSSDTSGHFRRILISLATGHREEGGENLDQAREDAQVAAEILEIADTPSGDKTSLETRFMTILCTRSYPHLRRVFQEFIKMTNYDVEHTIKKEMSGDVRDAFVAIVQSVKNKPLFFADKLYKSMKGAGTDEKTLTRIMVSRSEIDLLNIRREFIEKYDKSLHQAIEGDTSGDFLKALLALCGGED
Assay: pull-down; 2 µg of GST-AnxA6 immobilized to glutathione beads, incubated with 500 µg of whole cell extract from MDA-468 cells in lysis buffer with or without 1 mM Ca2+; Western blotting; only the target purified

- binding: binds
Substance: E-cadherin (human (endogenous in MDA-468))
